# PubChem BioAssay AID1224826 – NIAID – 2016
# Purpose: 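Genes that change LPS-induced Tnf promoter activity in mouse macrophages when knocked down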 (primary screen)
# Cells: RAW264.7 G9 macrophages from mouse bearing reporters for p65 (GFP) and the Tnf promoter (mCherry)
# Reagent: siRNA pool against mouse genes, 100 nM
# Time to read-out: 16 h of LPS stimulation, after 2 days of siRNA transfection
# Conditions: bacterial lipopolysaccharide (Salmonella minnesota R595), 10 ng/ml
# Measured: 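Nuclear mCherry signal of the Tnf promoter reporter measured by imaging after background removal, scaled to each plate median and turned into robust z-scores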
# Scale: Tnf reporter robust z-score: higher = stronger Tnf promoter reporter signal after LPS; Tnf reporter intensity: higher = stronger Tnf promoter reporter signal
# Rule for the call: 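Called active when robust z-score is at most -1.3, matching the median of the Tlr4 knock-down control, or over 3; control wells and wells with under 50 cells never active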
# Calls: active = Tnf reporter clearly lowered or raised; inactive = no clear change in Tnf reporter
# Here is an unselected part of about 17,000 reagents. About 1,110 of them (6.6%) were called active. 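Active means lowered or raised reporter signal; replicate intensities are raw and not normalised per plate.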 Reagents against one gene are numbered here. No sequences are given here.
The first 7 records as a preview:
gene,reagent no.,Tnf reporter robust z-score,fewer than 50 cells in well,"Tnf reporter intensity, replicate 1","Tnf reporter intensity, replicate 2",call
Sptbn1,1,3.35,enough cells in well,249,179,active
Hbs1l,1,-0.39,enough cells in well,294,87.7,inactive
Zbtb11os1,1,,fewer than 50 cells per well; well left out of calls,138,65.1,inactive
Rock1,1,0.84,enough cells in well,251,207,inactive
Rflna,1,1.6,enough cells in well,343,71.4,inactive
Ptger1,1,-0.42,enough cells in well,263,33.5,inactive
Foxb1,1,0.09,enough cells in well,301,209,inactive

The listing, from the start:
gene,reagent no.,Tnf reporter robust z-score,fewer than 50 cells in well,"Tnf reporter intensity, replicate 1","Tnf reporter intensity, replicate 2",call
Sptbn1,1,3.35,enough cells in well,249,179,active
Hbs1l,1,-0.39,enough cells in well,294,87.7,inactive
Zbtb11os1,1,,fewer than 50 cells per well; well left out of calls,138,65.1,inactive
Rock1,1,0.84,enough cells in well,251,207,inactive
Rflna,1,1.6,enough cells in well,343,71.4,inactive
Ptger1,1,-0.42,enough cells in well,263,33.5,inactive
Foxb1,1,0.09,enough cells in well,301,209,inactive
Hip1r,1,0.25,enough cells in well,253,187,inactive
Klra6,1,-0.46,enough cells in well,223,112,inactive
Ino80e,1,-0.31,enough cells in well,189,164,inactive
Fbxo5,1,0.07,enough cells in well,240,231,inactive
Birc6,1,-0.26,enough cells in well,112,176,inactive
Klf6,1,-0.24,enough cells in well,217,185,inactive
Kcne2,1,-0.03,enough cells in well,198,12.6,inactive
Agps,1,1.03,enough cells in well,208,250,inactive
Or10j27,1,-0.44,enough cells in well,156,101,inactive
Ptpru,1,0.2,enough cells in well,334,217,inactive
Sct,1,0.25,enough cells in well,152,126,inactive
Ddah1,1,2.33,enough cells in well,378,254,inactive
Pim3,1,1.08,enough cells in well,283,205,inactive
Ifit1,1,0.19,enough cells in well,249,150,inactive
Nfyb,1,-1.77,enough cells in well,106,65.8,active
Mrpl54,1,2.14,enough cells in well,266,252,inactive
Nrl,1,0.47,enough cells in well,268,220,inactive
Or52ab4,1,1.16,enough cells in well,76.4,165,inactive
Mtrf1,1,0.58,enough cells in well,269,128,inactive
Chaf1b,1,-0.37,enough cells in well,180,274,inactive
Nrde2,1,1.52,enough cells in well,260,373,inactive
Tjap1,1,-0.76,enough cells in well,212,52.8,inactive
Duoxa1,1,1.11,enough cells in well,310,254,inactive
Slk,1,,fewer than 50 cells per well; well left out of calls,117,0,inactive
Cacna1a,1,-0.67,enough cells in well,119,115,inactive
Hras,1,-1.89,enough cells in well,115,42,active
Arhgap11a,1,-0.67,enough cells in well,158,127,inactive
Mfap2,1,-0.02,enough cells in well,185,149,inactive
Mansc1,1,-0.31,enough cells in well,178,160,inactive
Asxl2,1,,fewer than 50 cells per well; well left out of calls,145,27.4,inactive
Cd164,1,-0.81,enough cells in well,179,151,inactive
Sipa1l1,1,-0.12,enough cells in well,93.7,101,inactive
Or52d3,1,-1.59,enough cells in well,48,69.8,active
Klra9,1,0.06,enough cells in well,239,157,inactive
Arsg,1,-0.34,enough cells in well,130,155,inactive
Stx6,1,1.44,enough cells in well,176,123,inactive
Exoc3l4,1,0.17,enough cells in well,215,93.2,inactive
Or1r1,1,-1.94,enough cells in well,68.7,57,active
Zfp111,1,0.87,enough cells in well,167,154,inactive
Nudt5,1,0.16,enough cells in well,207,151,inactive
Or6c205,1,0.54,enough cells in well,204,150,inactive
Or6c205,2,1.56,enough cells in well,146,186,inactive
Cnpy4,1,-0.3,enough cells in well,224,61.2,inactive
Lce1d,1,3.74,enough cells in well,245,208,active
Strn4,1,,fewer than 50 cells per well; well left out of calls,114,88.7,inactive
Fgf18,1,,fewer than 50 cells per well; well left out of calls,34.7,80.5,inactive
Prss59,1,,fewer than 50 cells per well; well left out of calls,144,57.3,inactive
Rgma,1,0.71,enough cells in well,148,169,inactive
Sall2,1,-1.03,enough cells in well,103,63.2,inactive
Pard3,1,-0.3,enough cells in well,222,160,inactive
Cldn17,1,-0.37,enough cells in well,78.9,244,inactive
Or10k2,1,-1.14,enough cells in well,119,69.4,inactive
Prpf6,1,,fewer than 50 cells per well; well left out of calls,115,45,inactive
Kcnq1,1,-0.02,enough cells in well,225,159,inactive
Cenpm,1,,fewer than 50 cells per well; well left out of calls,175,107,inactive
Wnt5a,1,-0.69,enough cells in well,179,173,inactive
Chrdl1,1,0.39,enough cells in well,189,195,inactive
Or1e26,1,0.81,enough cells in well,218,162,inactive
Mcm4,1,-0.47,enough cells in well,270,132,inactive
Mbd4,1,0.13,enough cells in well,262,224,inactive
Sema4g,1,-1.68,enough cells in well,46.5,33.9,active
Grm5,1,0.22,enough cells in well,207,359,inactive
Slc41a1,1,,fewer than 50 cells per well; well left out of calls,20.4,13,inactive
Cnpy3,1,-1.16,enough cells in well,122,54.4,inactive
Zfp108,1,,fewer than 50 cells per well; well left out of calls,20.1,83.3,inactive
Ehbp1l1,1,2.19,enough cells in well,337,249,inactive
Klf17,1,1.13,enough cells in well,164,181,inactive
5330426L24Rik,1,1.71,enough cells in well,320,193,inactive
